Test results: article PMC10184829
These are yes or no findings as the source states them, for the method shown. In cells and extracts the contact can be indirect. Some results given as binding are weak or reduced against the parent protein; the word gives no strength. For some assays here: Sequences can lack the tags named with a protein. Values belong to the binder of their own block, whether it stands above or below them.

Experiments:
[1] = biological target: T1, GST-CGNL1 fragment D (Rod-1 region, residues 591-882) (human) (UniProt Q0VF96); assay: pull-down; GST fusion proteins as baits; GFP-tagged preys expressed in HEK293T cells, in lysates; immunoblot with anti-GFP antibodies; only the target purified
T1 sequence: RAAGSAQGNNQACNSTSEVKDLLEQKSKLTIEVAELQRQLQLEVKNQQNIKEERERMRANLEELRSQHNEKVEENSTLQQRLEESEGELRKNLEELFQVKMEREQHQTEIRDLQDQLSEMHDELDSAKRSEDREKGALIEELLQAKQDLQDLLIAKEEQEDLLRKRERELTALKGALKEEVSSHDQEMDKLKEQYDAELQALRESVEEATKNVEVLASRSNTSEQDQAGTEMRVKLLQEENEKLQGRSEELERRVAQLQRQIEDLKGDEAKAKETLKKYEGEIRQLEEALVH

[2] = biological target: T2, Paracingulin (CGNL1), endogenous in mCCD cells (mouse (endogenous in mCCD)) (UniProt Q6AW69); assay: proximity ligation; PLA for CGNL1 and CAMSAP3 in mCCD cells (WT, PLEKHA7-KO, CGN-KO; CGNL1-KO as negative control), ZO-1 as junctional marker
T2 sequence: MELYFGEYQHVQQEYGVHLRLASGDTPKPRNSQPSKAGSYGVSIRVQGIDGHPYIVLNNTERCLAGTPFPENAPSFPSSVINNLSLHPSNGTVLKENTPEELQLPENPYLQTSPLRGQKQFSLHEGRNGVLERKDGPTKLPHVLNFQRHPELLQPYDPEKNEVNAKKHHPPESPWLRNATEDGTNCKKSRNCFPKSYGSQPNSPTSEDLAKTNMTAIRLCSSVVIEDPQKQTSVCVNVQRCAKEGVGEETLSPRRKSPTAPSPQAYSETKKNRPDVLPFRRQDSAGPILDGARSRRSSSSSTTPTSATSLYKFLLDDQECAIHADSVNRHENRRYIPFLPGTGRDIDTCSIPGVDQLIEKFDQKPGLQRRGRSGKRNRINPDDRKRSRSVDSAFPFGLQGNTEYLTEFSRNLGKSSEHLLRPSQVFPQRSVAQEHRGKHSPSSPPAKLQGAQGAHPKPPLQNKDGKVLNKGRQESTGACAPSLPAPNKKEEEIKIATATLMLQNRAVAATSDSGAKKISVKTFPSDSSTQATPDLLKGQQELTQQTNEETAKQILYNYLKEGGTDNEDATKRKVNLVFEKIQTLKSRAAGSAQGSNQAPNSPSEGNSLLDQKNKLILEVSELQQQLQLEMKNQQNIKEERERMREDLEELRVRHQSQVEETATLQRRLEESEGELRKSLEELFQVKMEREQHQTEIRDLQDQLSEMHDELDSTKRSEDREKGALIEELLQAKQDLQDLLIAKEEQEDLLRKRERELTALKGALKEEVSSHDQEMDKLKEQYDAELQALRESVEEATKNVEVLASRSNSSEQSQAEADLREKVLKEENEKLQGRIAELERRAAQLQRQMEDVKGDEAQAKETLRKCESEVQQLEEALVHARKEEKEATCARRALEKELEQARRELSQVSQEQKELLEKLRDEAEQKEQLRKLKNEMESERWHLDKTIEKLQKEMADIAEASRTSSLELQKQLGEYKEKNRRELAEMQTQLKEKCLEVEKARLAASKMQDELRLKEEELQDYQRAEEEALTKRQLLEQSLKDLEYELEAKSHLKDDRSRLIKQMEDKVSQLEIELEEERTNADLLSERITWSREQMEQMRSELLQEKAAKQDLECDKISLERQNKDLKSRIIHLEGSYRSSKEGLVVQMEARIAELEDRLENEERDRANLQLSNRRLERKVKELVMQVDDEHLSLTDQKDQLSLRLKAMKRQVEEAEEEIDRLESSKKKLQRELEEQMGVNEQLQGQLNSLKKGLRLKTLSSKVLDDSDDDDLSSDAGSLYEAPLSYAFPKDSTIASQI

[3] = biological target: T2, Paracingulin (CGNL1), endogenous in mCCD cells (mouse (endogenous in mCCD)); assay: co-IP; total lysates of mCCD cells immunoprecipitated with anti-CGNL1 antibodies (anti-HA as negative control); immunoblot for CGNL1, CAMSAP3 and PLEKHA7

B1: GFP-tagged mouse CAMSAP3 coiled-coil region (CCs: 594-947) (domain or fragment, UniProt Q80VC9-1 594-947)
chain: PEALSSEMSELGARLEEKRRAIEAQKRRIEAIFAKHRQRLGKSAFLQVQPREAAGEAEEEAELGSVPGGERPAGEGQGEPSLRHKSVTFSPDLGPVPPEGLGDYNRAVSKLSAALSSLQRDMQRLTDQQQRLLAPPEAPGPAPPPAAWVIPGPATGPKAASPSPARRAPAARRSPGPGPSPTPRSPKHARPAELKLAPLTRVLTPPHDVDSLPHLRKFSPSQVPVQTRSSILLSEGTPPEEPTTKPALIEIPLASLGEPAADEEGDGSPPGAEDSLEEEASSEGEPRSGLGFFYKDEDKPEDEMAQKRASLLERQQRRVEEARRRKQWQEAEKEQKREEAARLAQEAPGLAFTT
binding [1]: binds

binding [2]: binds | binding [3]: binds
B2: CAMSAP3, endogenous in mCCD cells (protein, UniProt Q80VC9-1 1-1252)
chain: MVEAAPAGSGPLRRTFLVPEIKSLDQYDFSRAKAAASLAWVLRAAFGGAEHVPPELWEPFYTDQYAQEHVKPPVTRLLLSAELYCRAWRQALPQLEPSPSPSALLALLARRGTVPSLPEHPVREADLKHQPILMGAHLAVIDALMVAFSFEWTKTLPGPLALSSLEHKLLFWVDTTVRRLQEKTEQEAAQRASPAAPLDGASPAQPSIRYRKDRAIARRAPCFPNVTTLQDLASGAALAATIHCYCPQLLRLEEVCLKDPMSVADSLYNLQLVQDFCASHLPRGCPLSLEDLLYVPPPLKVNLVVLLAEMYMCFEVLKPDFVQAKDLPDGHAVSPRNTETVPSQNNSGSSSPVFNFRHPLLSPGGPQSPLRGSTGSLKSSPSMSHMEALGKAWNRQLSRPLSQAVSFSTPFGLDSDVDVVMGDPVLLRSVSSDSLGPPRPVSTSSRNSAQPAPESGDLPTIEEALQIIHSAEPRLLPDGAADGSFYLHSPEGLSKPPLSPYPPEGASKPLSDRLNKAPIYISHPENPSKSSPCSTGEILKPPPPSEGSPKAVASSPAANNSEVKMTSFAERKKQLVKAEAESGLGSPTSTPVAPEALSSEMSELGARLEEKRRAIEAQKRRIEAIFAKHRQRLGKSAFLQVQPREAAGEAEEEAELGSVPGGERPAGEGQGEPSLRHKSVTFSPDLGPVPPEGLGDYNRAVSKLSAALSSLQRDMQRLTDQQQRLLAPPEAPGPAPPPAAWVIPGPATGPKAASPSPARRAPAARRSPGPGPSPTPRSPKHARPAELKLAPLTRVLTPPHDVDSLPHLRKFSPSQVPVQTRSSILLSEGTPPEEPTTKPALIEIPLASLGEPAADEEGDGSPPGAEDSLEEEASSEGEPRSGLGFFYKDEDKPEDEMAQKRASLLERQQRRVEEARRRKQWQEAEKEQKREEAARLAQEAPGLAFTTPVVASAAPVATLAPTTRAMAPAEEEVGPRRGDFTRLEYERRAQLKLMDDLDKVLRPRASGTGGPGRGGRRATRPRSGCCDDSALARSPARGLLGSRLSKVYSQSTLSLSTVANEAPNNLGVKRPTSRAPSPSGLMSPSRLPGSRERDWENGSNASSPASVPEYTGPRLYKEPSAKSNKFIIHNALSHCCLAGKVNEPQKNRILEEIEKSKANHFLILFRDSSCQFRALYTLSGETEELSRLAGYGPRTVTPAMVEGIYKYNSDRKRFTQIPAKTMSMSVDAFTIQGHLWQSKKPTTPKKGGGTPK

binding [1]: binds
B3: GFP-tagged full-length mouse CAMSAP3 (protein, UniProt Q80VC9-1 1-1252)
chain: B2 chain

binding [3]: binds
B4: PLEKHA7, endogenous in mCCD cells (protein, UniProt Q3UIL6 1-1118)
chain: MAAAVGRDTLPEHWSYGVCRDGRVFFINDQLRCTTWLHPRTGEPVNSGHMIRSDLPRGWEEGFTEEGASFFIDHNQQTTTFRHPVTGQFSSENSEYVLREEPHPHMSKPERNQRPSSMVSETSTAGTTSTLEAKPGPKIVKSSSKVHSFGKRDQAIRRNLNVPVVVRGWLHKQDSSGMRLWKRRWFVLADYCLFYYKDSREEAVLGSIPLPSYVISPVAPEDRISRKYSFKAVHTGMRALIYSTTTAGSQMEHSGMRTYYFSADTLEDMNAWVRAMNQAAQVLSRSSLRRDVDKVERQAMPQANHTDACQECGHVGPGHSRDCPRRGYEDSYGFNRREQEEERFRAQRDPLEGRRDRSKARSPYLPAEEDALFVDLPGGPRGQQAQPQRAEKNGVPPYGLGEQNGTNGYQRTAPPRANPEKHSQRKTGLAQAEHWTKAQKGDGRSLPLDQTLPRQGPSQPLSFPENYQSLPKSTRHLSGSSSPPPRNLPSDYKYAQDRASHLKMSSEERRAHRDGTVWQLYEWQQRQQFRHGSPTAPIGAGSPEFTEQGRSRSLLEVPRSISVPPSPSDIPPPGPPRPFPPRRPHTPAERVTVKPPEQRRSVDISLGGSPRKARGHAAKNSSHVDRRSMPSMGYMTHTVSAPSLHGKSADDTYLQLKKDLEYLDLKMTGRDLLKDRSLKPMKIAESDIDVKLSIFCEQDRILQDLEDKIRALKENKDQLESVLEVLHRQTEQYRDQPQHLEKITCQQRLLQEDLVHIRAELCRESTEMENAWNEYLKLEKDVEQLKQTLQEQHRRAFFFQEKSQIQKDLWRIEDVMAGLSANKENYRVLVGSVKNPERKTVPLFPHPSVPSLSPTESKPALQPSPPTSPVRTPLEVRLFPQLQTYVPYRPHPPQLRKVMSPLQSPTKAKPQAEDEAPPRPPLPELYSPEDQPPAVPPLPREATIIRHTSVRGLKRQSDERKRDREQGQCVNGDLKVELRSYVSEPELASLSGDVPQPSLSLVGSESRYQTLPGRGLSGSTSRLQQSSTIAPYVTLRRGLNAENSSATFSRPKSALERLYSGDHQRGKMSAEEQLERMKRHQKALVRERKRTLSQGEKTGLLSARYLSQPLPGDLGSVC
